Experimental data as given in article PMC12350170, “Structural basis for the synergistic assembly of the snRNA export complex” (Nature Structural & Molecular Biology, 2025).
Results are given in words; binding and its absence hold for the method and conditions named.

Protein sequences, listed by entry. Tags and fused reporters are not part of them. Lines headed by an entry give the natural chain unless they say otherwise; changes in a name come on top. Chains listed by the source or under a name are the forms on record and can include a tag or linker.
UniProt O14980: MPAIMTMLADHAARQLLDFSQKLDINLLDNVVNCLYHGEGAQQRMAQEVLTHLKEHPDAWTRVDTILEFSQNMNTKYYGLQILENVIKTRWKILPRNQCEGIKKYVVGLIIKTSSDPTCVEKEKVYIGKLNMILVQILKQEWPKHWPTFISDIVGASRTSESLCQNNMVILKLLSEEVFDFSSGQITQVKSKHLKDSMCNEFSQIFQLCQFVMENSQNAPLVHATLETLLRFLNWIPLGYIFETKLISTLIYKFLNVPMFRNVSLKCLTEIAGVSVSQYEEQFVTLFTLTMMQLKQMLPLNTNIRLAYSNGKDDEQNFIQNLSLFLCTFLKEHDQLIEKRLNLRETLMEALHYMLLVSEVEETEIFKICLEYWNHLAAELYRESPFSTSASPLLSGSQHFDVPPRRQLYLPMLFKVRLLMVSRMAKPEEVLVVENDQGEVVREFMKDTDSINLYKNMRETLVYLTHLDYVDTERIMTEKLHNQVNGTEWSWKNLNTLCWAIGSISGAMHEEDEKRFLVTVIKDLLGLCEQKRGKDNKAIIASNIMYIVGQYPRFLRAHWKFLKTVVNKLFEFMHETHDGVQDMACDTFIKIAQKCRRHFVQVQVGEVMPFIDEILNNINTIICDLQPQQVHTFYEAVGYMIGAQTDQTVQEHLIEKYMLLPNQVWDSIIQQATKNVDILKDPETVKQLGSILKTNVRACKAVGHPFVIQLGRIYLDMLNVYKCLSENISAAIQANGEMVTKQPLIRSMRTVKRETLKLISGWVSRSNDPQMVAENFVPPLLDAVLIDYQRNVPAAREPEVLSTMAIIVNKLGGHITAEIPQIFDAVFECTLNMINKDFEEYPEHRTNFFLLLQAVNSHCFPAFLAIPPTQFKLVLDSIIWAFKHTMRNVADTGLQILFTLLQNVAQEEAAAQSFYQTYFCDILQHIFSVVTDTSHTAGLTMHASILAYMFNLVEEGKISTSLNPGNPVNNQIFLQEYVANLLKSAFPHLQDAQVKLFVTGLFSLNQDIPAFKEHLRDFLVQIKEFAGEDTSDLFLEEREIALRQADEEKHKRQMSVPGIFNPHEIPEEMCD
MBP-PHAX103–196 R147E, Y152E, Y154E (Q9H814, form named): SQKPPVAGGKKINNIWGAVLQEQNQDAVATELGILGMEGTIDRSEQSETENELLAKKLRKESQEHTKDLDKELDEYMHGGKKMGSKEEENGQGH
MBP-PHAX103–196 W118E (Q9H814, form named): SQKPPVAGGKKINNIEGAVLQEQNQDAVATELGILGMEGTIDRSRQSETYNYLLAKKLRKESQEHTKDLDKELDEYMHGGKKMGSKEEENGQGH
MBP-PHAX103–196 Y154A (Q9H814, form named): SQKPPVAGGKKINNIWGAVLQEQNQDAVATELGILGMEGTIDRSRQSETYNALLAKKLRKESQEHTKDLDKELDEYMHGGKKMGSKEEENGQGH

Tests used:
Human CRM1 (human) = Human CRM1 (human) (UniProt O14980); experiment: SEC; Superdex 200 Increase 3.2/300; 180 pmol CBC and 360 pmol PHAX construct, CRM1 and RanGTP mixed with 100 μM capped 14-nt RNA (or U1 snRNA), 1 mM Mg2+, 1 mM KCl, 100 μM GTP, 30 min on ice; fractions on SDS-PAGE; both purified
[1] = molecular target: T1, Human nuclear cap-binding complex (CBC): CBP80ΔNLS with CBP20 (human) (UniProt Q09161+P52298); experiment: as above
T1 sequence 1: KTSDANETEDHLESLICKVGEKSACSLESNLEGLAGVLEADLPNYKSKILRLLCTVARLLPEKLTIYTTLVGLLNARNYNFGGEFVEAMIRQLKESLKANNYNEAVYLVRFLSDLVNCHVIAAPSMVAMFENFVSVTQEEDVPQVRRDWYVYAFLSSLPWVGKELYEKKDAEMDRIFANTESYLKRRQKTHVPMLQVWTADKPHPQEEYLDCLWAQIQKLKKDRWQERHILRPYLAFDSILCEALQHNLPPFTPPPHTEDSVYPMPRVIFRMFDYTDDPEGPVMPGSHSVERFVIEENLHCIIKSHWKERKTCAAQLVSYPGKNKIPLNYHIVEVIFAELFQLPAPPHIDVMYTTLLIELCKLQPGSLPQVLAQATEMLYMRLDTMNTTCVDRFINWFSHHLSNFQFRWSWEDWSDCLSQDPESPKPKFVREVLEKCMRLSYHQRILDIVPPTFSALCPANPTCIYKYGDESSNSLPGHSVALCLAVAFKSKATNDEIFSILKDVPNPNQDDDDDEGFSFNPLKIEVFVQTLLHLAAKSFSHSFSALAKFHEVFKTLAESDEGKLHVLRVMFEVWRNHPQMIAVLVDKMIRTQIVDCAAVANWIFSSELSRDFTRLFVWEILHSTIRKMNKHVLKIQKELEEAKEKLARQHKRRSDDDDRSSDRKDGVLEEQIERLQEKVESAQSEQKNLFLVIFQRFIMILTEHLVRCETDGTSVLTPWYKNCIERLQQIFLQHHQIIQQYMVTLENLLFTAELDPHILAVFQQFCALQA
T1 sequence 2: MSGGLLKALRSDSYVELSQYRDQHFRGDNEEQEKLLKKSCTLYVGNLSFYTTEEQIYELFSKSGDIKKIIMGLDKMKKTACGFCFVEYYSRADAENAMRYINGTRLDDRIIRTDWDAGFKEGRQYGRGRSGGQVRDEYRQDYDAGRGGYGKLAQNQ

Substance	binding (Human CRM1 (human))	binding [1]
MBP-PHAX103–196 R147E, Y152E, Y154E (from UniProt Q9H814 103-196) (domain or fragment)	no binding	
MBP-PHAX103–196 W118E (from UniProt Q9H814 103-196) (domain or fragment)	no binding	no binding
MBP-PHAX103–196 Y154A (from UniProt Q9H814 103-196) (domain or fragment)	no binding	
